Tested on: motor co-ordination
Assay: accelerating rotarod (motor co-ordination) with observed behaviour
Format: in vivo, male Sprague Dawley rats
Settings: ID50 motor impairment / ID50 inhibition of allodynia
Protocol: The present Example examined whether NMDA NR2B receptor antagonists have an improved therapeutic window over unselective NNIDA/glycine antagonists and other ion channel blockers including lamotrigine and gabapentin, by comparing their anti-algesic effects with their liability to induce motor impairment in rats. Anti-algesic activity was assessed using an assay of neuropathic pain in rats (sciatic nerve ligation) and in a carrageenan-induced hyperalgesia assay. Motor impairment was measured using an accelerating rotarod.
For sciatic nerve ligation, male Sprague Dawley rats (180-220g) were anaesthetised with isofluorane, the left sciatic nerve exposed and 4 chromic catgut (4.0) ligatures were tied loosely around the nerve (spaced 1-2 mm apart) immediately proximal to the point of trifurcation. In shamoperated animals, the same dissection was performed but without ligation. Responses to mechanical pressure were assessed 7 days after ligation using a modified Randall-Selitto algesiometer in which constant force of […] was applied to the hind paw and the latency to struggle was recorded as the reaction time. Mechanical allodynia was defined as the difference in reaction time for sham and ligature rats. Reaction times for drug treated rats were expressed as a percentage of this response. Compounds were administered 1 h before the test. In the carrageenan-induced hyperalgesia assay, male Sprague Dawley rats (100-120 g) received an intraplantar injection of carrageenan (4.5 mg) and mechanical thresholds were determined 3 h later using a modified Ugo Basile Algesiometer. Control rats received saline (0.15 ml i.pl.). Hyperalgesia was defined as the difference in vocalisation threshold for saline- and carrageenan-injected rats. Paw pressure scores for drug-treated rats were expressed as a percentage of this response. Compounds were administered 2 h after carrageenan. To determine the effects of the compounds on motor co-ordination, male Sprague Dawley rats (160-180 g) were first trained to remain for 120 s on the rotarod apparatus revolving at 12 r.p.m. on the morning before the test. Animals then received drug treatments and 1 h later were placed on an accelerating rotarod (increasing from 4 - 40 r.p.m. during a 5 min period) and the time the rats were able to remain on the rotarod recorded. Lamotrigine, gabapentin and (±)-CP-101,606 were suspended in 0.5% methocel and administered orally (1 ml/kg). Ifenprodil, L-701,324, L-687,414 and (±)-Ro25-6981 were dissolved or suspended in 0.5% methocel and administered intraperitoneally (1 ml/kg). MK-801 was dissolved in distilled water and given i.p. (1 ml/kg). Doses of compounds refer to the free base.
To determine the effects of morphine and (±)-Ro25-6981 on motor co-ordination, male Sprague Dawley rats (160-180 g) were first trained to remain for 120 s on the rotarod apparatus revolving at. 12 r.p.m. on the morning before the test. Animals then received drug treatments and 1 h later were placed on an accelerating rotarod (increasing from 4 - 40 r.p.m. during a 5 min period) and the time the rats were able to remain on the rotarod recorded.

Compound	Ratio Rotarod/ Rat Ligation (i.p.)	Ratio Rotarod/ Rat Ligation (p.o.)	other results
C[C@@H](CN1CCC(Cc2ccccc2)CC1)[C@@H](O)c1ccc(O)cc1 (racemic) [(±)-Ro25-6981]	≥ 26	–	Ratio Rotarod/ Rat Ligation (i.p., listed as RO25-6981): ≥26
NCC1(CC(=O)O)CCCCC1 [Gabapentin]	–	1.5	–
CC(C(O)c1ccc(O)cc1)N1CCC(Cc2ccccc2)CC1 (stereo not shown) [Ifenprodil]	5.3	–	–
C[C@@H]1CN(O)C(=O)[C@@H]1N [L-687,414]	5.4	–	–
O=c1[nH]c2cc(Cl)ccc2c(O)c1-c1cccc(Oc2ccccc2)c1 [L-701,324]	0.7	–	–
Nc1nnc(-c2cccc(Cl)c2Cl)c(N)n1 [Lamotrigine]	–	> 45	–
C[C@]12N[C@H](Cc3ccccc31)c1ccccc12 [MK-801]	1.1	–	–
(±)-CP-101,606	–	> 49	Ratio Rotarod/ Rat Ligation (p.o., listed as CP-101,606): >49

From EP1058559B1, “COMBINATION OF A SELECTIVE NMDA NR2B ANTAGONIST AND A COX-2 INHIBITOR” (MERCK SHARP & DOHME LTD., priority 1998, dated 1999)
